The results in this text go back to PubChem BioAssay AID2685 (National Center for Advancing Translational Sciences (NCATS), 2010).

The other results are listed elsewhere or left out. These are further read-outs of the screen, such as a control signal, another cell line or another target. No call is given for them. Most of these compounds were active or inconclusive in the main read-out, so they are no random draw. The note in brackets gives the kind of curve behind each potency; many fits are weak.

The test in a line: qHTS Assay for Lipid Storage Modulators in Drosophila S3 Cells.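 As to cell number change: cells counted by Cell Tracker Red CMTPX staining in the red channel.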 The note with it: BODIPY lipid droplet fluorescence, 18-24 h; for cell number change: measured here: cell count max response, cells fed with added oleic acid. The method in brief:
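Drosophila S3 cells got compounds at several concentrations plus oleic acid (400 uM solution). Laser-scanning cytometry with 488 nm excitation read lipid droplets at 500-530 nm and cells at 575-640 nm. Percent activity was relative to 20 uM Triacsin C.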
(In general: Quantitative high-throughput screening tests each substance at several concentrations.)

Setting [1] is: measured here: lipid fluorescence (Fed channel) AC50, cells fed with added oleic acid.
The mark [2] stands for this setting: measured here: cell number channel AC50, cells fed with added oleic acid.

`Cc1ccc(-n2c(SCC(=O)Nc3ccc(Cl)cc3)nc(O)cc2=O)cc1`: the cell number change is -7.63%. The AC50 under setting [1] is 29.1 µM [rising, single point].
`O=C(CNc1cccc(C(F)(F)F)c1)N/N=C/C1CCCCC1`: the cell number change was -35.7%. The concentration at half-maximal activity (AC50) under setting [2] was 9.2 µM [falling, partial curve].
Regarding `CC1CCC(NC(=O)C2CCN(C(=O)Nc3ccccc3)CC2)CC1` (centres undefined), the cell number change is -2.39%. Besides, the AC50 under setting [1] was 6.51 µM [falling, single point].
As for `Cc1cccc(C(=O)N2CCN(CCNC(=O)C(=O)Nc3ccc(F)cc3)CC2)c1`, the cell number change was 14.8%.
For `O=C(CSc1nc2ccccc2c(=O)n1-c1ccccc1F)Nc1ccc2c(c1)CCC2`, the cell number change was -37.4%. The AC50 under setting [2] was 6.51 µM [rising, single point]. Moreover, the AC50 under setting [1] was 6.51 µM [rising, single point].
On to `Cc1ccc(S(=O)(=O)/N=C2\SC(CC(=O)Nc3ccc(F)cc3)C(=O)N2c2ccccc2)cc1` (centres undefined), for which the cell number change was found to be 150%. In addition, the AC50 under setting [2] is 29.1 µM [rising, partial curve].
Turning to `COCCN(C(=O)CSc1ncccn1)c1c(N)n(Cc2ccccc2)c(=O)[nH]c1=O`, the cell number change stood at 97.3%. Moreover, the AC50 under setting [2] was 29.1 µM [rising, single point]. Moreover, under setting [1], the AC50 is 6.51 µM [falling, single point].
On to `Cn1c(SCc2nc3cc(C(=O)O)ccc3c(=O)[nH]2)nnc1C(F)(F)F`, for which the cell number change is -28.3%.
For the compound `CCCCCCC(=O)Nc1nc(C)c(-c2csc(Nc3cc(Cl)ccc3OC)n2)s1`, the cell number change is -30.1%. Moreover, the AC50 under setting [2] is 7.31 µM [falling, partial curve]. Further, the AC50 under setting [1] is 14.6 µM [rising, partial curve, poor fit].
Consider `CN(C)S(=O)(=O)c1ccc2c(c1)C(=O)c1cc(S(=O)(=O)N(C)C)ccc1CC2`, for which the cell number change was -0.582%.
Turning to `CC(OC(=O)C1CCN(S(=O)(=O)c2ccc(Cl)cc2)CC1)C(=O)N1CCc2ccccc21` (centres undefined), the cell number change came out at 53.2%. Moreover, under setting [2], the AC50 was 18.4 µM [rising, single point]. Further, the AC50 under setting [1] is 6.51 µM [falling, partial curve, poor fit].
Consider `O=[N+]([O-])c1ccc(N/N=C/c2sc(N3CCOCC3)nc2-c2ccccc2)c(S(=O)(=O)Nc2ccccc2Cl)c1`, for which the concentration at half-maximal activity (AC50) under setting [1] was 0.291 µM [falling, full curve, poor fit].
For `Cc1[nH]nc2c1C1(C(=O)Nc3ccc([N+](=O)[O-])cc31)C(C#N)=C(N)O2` (centres undefined), the cell number change is 6.62%.
Turning to `O=C(CCn1nc(-c2ccc(Cl)cc2)ccc1=O)N1CCN(c2ccccn2)CC1`, the AC50 was 0.651 µM [rising, full curve, poor fit] under setting [2] and 0.116 µM [rising, full curve, poor fit] under setting [1].
As for `N#Cc1ccc(OCC(=O)NCC2COc3ccccc3O2)cc1` (centres undefined), the cell number change was -12.3%.
Regarding `Cc1nc(NC(=O)c2cc3c(C)nn(-c4ccccc4)c3s2)sc1C(=O)Nc1ccccc1`, the AC50 runs as follows: under setting [2], 1.3 µM [rising, full curve]; under setting [1], 6.51 µM [rising, single point].
As for `CCC(C)NCCOCCOc1ccc(Cl)c2ccccc12` (centres undefined), the cell number change was -0.193%. In addition, the AC50 under setting [2] was 6.51 µM [falling, single point]. For the same compound, the AC50 under setting [1] was 6.51 µM [falling, single point].
In the case of `O=C1C=CC(=C(c2ccc(O)cc2)c2ccc(O)cc2)C=C1`, the cell number change came to 13.5%. Also, the AC50 under setting [1] is 29.1 µM [falling, single point].
Turning to `CCc1ccc2oc(C(=O)N3CCN(c4ccc(OC)cc4)CC3)cc(=O)c2c1`, the cell number change came out at 21.6%. For the same compound, the half-maximal activity concentration (AC50) under setting [1] is 29.1 µM [rising, single point].
For `CC(C)(C)Nc1nc(OCC(F)(F)F)nc(OCC(F)(F)F)n1`, the AC50 under setting [1] is 29.1 µM [falling, single point].
Regarding `CC(C)CN(C(=O)C1CC1)c1c(N)n(Cc2ccccc2)c(=O)[nH]c1=O`, the cell number change is -10%.
Take `O=C1c2ccccc2C(Nc2ccccc2)N1Cc1ccc2c(c1)OCO2` (centres undefined): the cell number change came to 14.9%. Under setting [1], the AC50 was 0.58 µM [rising, single point].
Take `Nc1nc(SCC(=O)c2cc(F)ccc2F)n[nH]1`: under setting [2], the AC50 is 5.8 µM [rising, single point].
`COc1ccc(CNC(=S)Nc2cc(C)ccc2C)cc1`: the cell number change worked out at 37.4%. Moreover, the concentration at half-maximal activity (AC50) under setting [2] was 0.517 µM [rising, full curve, poor fit].
Regarding `Cc1c(C2(c3c(C)n(C)n(-c4ccccc4)c3=O)C(=O)Nc3ccc(F)cc32)c(=O)n(-c2ccccc2)n1C`, the cell number change came to 7.89%. Further, the AC50 under setting [1] was 29.1 µM [falling, single point].
Take `COc1ccc(NC(=O)N2CCCC2C(=O)NCc2ccc(C)cc2)cc1` (centres undefined): the cell number change came out at 5.61%. The AC50 under setting [2] was 4.11 µM [falling, partial curve]. For the same compound, under setting [1], the AC50 was 7.31 µM [falling, partial curve].
As to `CC(=O)c1cc2c(cc1N(C(=O)c1ccco1)C(C(=O)NC1CCCC1)c1ccccc1F)OCO2` (centres undefined), the cell number change came to 5.46%. Moreover, the AC50 under setting [1] is 6.51 µM [rising, partial curve, poor fit].
On to `CCOc1cc(CNCCCN2CCOCC2)ccc1OCC(=O)NC(C)(C)C`, for which the cell number change was -24%. Also, the AC50 under setting [1] is 0.461 µM [falling, full curve, poor fit].
As for `COc1ccc(/C=C/C(=O)c2cc(Br)ccc2O)cc1OC`, the cell number change stood at 12.6%.
Consider `COc1ccc(-n2c(SCC(C)=O)nc3sc(C)c(C)c3c2=O)cc1`, for which the cell number change was determined as 90.1%. For the same compound, under setting [2], the AC50 was 29.1 µM [rising, partial curve, poor fit].
As to `COc1cc(Cl)ccc1OCc1cc(C(=O)N2CC[C@@H]3CCCC[C@H]3C2)no1`, the cell number change was 2.09%.
For the compound `COCCNC(=O)CCC1CCN(Cc2cccc(Oc3ccccc3)c2)CC1`, the cell number change was found to be 14.3%. Further, under setting [1], the AC50 was 0.146 µM [falling, partial curve, poor fit].
As to `COCCn1c(SCC(=O)NC2CCCCC2)nnc1-c1ccncc1`, the cell number change is -1.28%.
Turning to `Cc1ncc([N+](=O)[O-])n1CCOC(=O)Nc1ccc([N+](=O)[O-])cc1`, the cell number change was -16.8%. Besides, the AC50 under setting [1] is 0.231 µM [falling, partial curve, poor fit].
`Cc1sc(N)nc1-c1ccc(Oc2ccccc2)cc1`: the cell number change was -37.8%. Moreover, under setting [2], the AC50 is 14.6 µM [falling, single point]. The AC50 under setting [1] is 0.651 µM [falling, full curve].
Take `CC(C)[C@H](NC(=O)N1CC(=O)Nc2ccccc21)C(=O)N[C@@H](C(=O)O)c1ccccc1`: the cell number change was -6.49%.
As for `CN(Cc1ccccc1F)c1nc(-c2cccs2)nc2ccccc12`, the cell number change came out at 23.3%. Moreover, under setting [2], the AC50 is 0.146 µM [rising, full curve, poor fit]. For the same compound, the AC50 under setting [1] is 5.8 µM [rising, partial curve, poor fit].

Broadly, the AC50 is the concentration giving half of the maximal activity seen. A low value points to greater potency.
